Assay results from PMC11564821.
These are yes or no findings as the source states them, for the method shown. In cells and extracts the contact can be indirect. Some entries that bind do so weakly or less than the wild type. Tags and fused reporters may be left off the sequences shown.

Chains of the proteins cited; added tags and fusions are not shown.
UniProt P19474: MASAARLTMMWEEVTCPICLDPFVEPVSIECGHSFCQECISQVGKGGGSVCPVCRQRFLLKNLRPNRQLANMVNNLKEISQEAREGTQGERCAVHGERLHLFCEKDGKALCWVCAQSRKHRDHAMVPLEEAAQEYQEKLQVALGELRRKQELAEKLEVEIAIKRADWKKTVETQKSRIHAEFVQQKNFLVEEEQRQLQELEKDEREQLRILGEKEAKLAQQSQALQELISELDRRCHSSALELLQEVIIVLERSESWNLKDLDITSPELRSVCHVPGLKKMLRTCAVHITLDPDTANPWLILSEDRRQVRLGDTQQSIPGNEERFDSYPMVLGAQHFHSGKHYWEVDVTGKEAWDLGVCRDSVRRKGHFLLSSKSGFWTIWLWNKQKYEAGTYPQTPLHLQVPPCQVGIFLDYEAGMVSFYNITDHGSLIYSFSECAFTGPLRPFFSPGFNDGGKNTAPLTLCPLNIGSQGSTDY

Key:
[1] = biological target: T1, HA-MDM4 (overexpressed in HEK293T) (UniProt O15151); assay: co-IP; two tagged proteins overexpressed together in HEK293T, each in turn immunoprecipitated by its tag; lysate supernatant with beads at 4 °C overnight, five washes with lysis buffer, immunoblot
T1 sequence: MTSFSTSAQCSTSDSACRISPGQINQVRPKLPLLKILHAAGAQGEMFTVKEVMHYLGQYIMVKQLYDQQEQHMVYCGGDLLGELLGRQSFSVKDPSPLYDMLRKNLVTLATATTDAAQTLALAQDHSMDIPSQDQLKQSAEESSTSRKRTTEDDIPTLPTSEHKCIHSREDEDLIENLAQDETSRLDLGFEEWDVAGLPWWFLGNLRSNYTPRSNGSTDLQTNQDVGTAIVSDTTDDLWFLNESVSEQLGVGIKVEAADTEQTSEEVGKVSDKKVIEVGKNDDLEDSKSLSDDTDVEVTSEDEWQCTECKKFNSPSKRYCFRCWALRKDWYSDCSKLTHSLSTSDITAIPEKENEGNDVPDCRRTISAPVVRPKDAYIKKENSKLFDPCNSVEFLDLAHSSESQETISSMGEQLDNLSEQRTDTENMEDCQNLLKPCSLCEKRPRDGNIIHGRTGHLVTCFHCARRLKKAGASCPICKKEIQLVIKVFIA

[2] = biological target: T2, HA-MDM4 (overexpressed in HT29) (UniProt O15151); assay: co-IP; tagged protein overexpressed in HT29 and immunoprecipitated by its tag, endogenous partner detected by immunoblot; beads at 4 °C overnight, five washes with lysis buffer
T2 sequence: T1 sequence

Substance	binding [1]	binding [2]
Myc-TRIM21 (overexpressed in HEK293T) (from UniProt P19474 1-475)	binds	–
endogenous TRIM21 (HT29) (from UniProt P19474 1-475)	–	binds
